Reference: PMC11525194
No constants are given. Whether binding was seen depends on the method and setting. Binding calls can cover weak binding; strength is not graded here.

Key:
FREE1 (A. thaliana) = target: T1, FREE1 (A. thaliana) (UniProt Q9ASS2); experiment: two-hybrid; Matchmaker Gold Y2H system, constructs co-transformed pairwise into yeast strain AH109; growth on SD/−Trp−Leu−His−Ade with 5 mM 3-AT
T1 sequence: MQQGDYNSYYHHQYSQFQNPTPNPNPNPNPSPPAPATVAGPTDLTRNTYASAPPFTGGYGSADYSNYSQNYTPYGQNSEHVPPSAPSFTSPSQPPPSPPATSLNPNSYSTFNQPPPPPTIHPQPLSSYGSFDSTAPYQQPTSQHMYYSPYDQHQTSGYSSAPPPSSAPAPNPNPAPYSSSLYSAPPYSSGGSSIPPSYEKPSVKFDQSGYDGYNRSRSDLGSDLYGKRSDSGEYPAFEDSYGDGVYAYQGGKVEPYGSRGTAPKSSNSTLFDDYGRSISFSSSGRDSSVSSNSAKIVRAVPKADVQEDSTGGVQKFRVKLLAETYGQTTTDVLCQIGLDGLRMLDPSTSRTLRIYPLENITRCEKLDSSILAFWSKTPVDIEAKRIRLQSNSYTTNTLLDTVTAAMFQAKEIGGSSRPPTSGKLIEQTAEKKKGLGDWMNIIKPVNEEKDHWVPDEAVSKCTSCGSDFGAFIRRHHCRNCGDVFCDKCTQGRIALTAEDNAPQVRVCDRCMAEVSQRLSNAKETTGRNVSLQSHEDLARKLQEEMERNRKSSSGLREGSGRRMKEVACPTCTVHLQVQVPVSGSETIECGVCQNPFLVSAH

[1] = target: T2, FREE1 (purified, condensing) (A. thaliana) (UniProt Q9ASS2); experiment: membrane flotation assay; proteins (100 nM) incubated 5 min at room temperature with PI3P-containing SUVs, floated on an OptiPrep gradient (100,000g, 2 h); membrane-bound VPS23 in the top fraction by immunoblot, with or without condensates of FREE1 variants; both purified
T2 sequence: T1 sequence

Row | binding (FREE1 (A. thaliana)) | binding [1] | Substance
1 | binds |  | VPS23A (A. thaliana)
2 |  | binds | VPS23A (mCherry labelled, purified) (A. thaliana)
